Results deposited as PubChem BioAssay AID504744 (Drosophila RNAi Screening Center, 2011).
The deposit covers about 23,000 reagents; below is an unselected part of those that have a named target and a result. Over the whole deposit, 98 (0.43%) are marked active. 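Only hit calls are given; the phospho-dAkt signals, z-scores and hit direction were not deposited.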 A plus sign joins genes that one reagent is predicted to hit. No sequences are given here.

Assay: 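Uncover factors, including feedback loops, that control dAkt activation in fly cells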 (primary screen)
Cell system: Drosophila Kc167 cells
Reagents: long dsRNA against Drosophila genes, 250 ng dsRNA per well of a 384-well plate
Duration: 3 days of knock-down, then overnight serum-free starvation before stimulation
Treatment: bovine insulin at 387 nM for 10 minutes after 12 h without serum
Measurement: 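In-cell antibody fluorescence for phospho-dAkt in each well over DNA-dye signal, with log2 residuals expressed as z-scores adjusted for cell count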
Active means: 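Under insulin, a gene counts as a hit if the average z-score of two replicates lies above 2.5 or below -2.5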

target gene	PubChem SID	outcome
nes (nessy)	SID104191167	inactive
CG17896	SID104198294	inactive
fliI (flightless I)	SID104200370	active
CG5065	SID104186704	inactive
jing	SID104184715	inactive
jing	SID104184719	inactive
jing	SID104184792	inactive
Vps53 (Vacuolar protein sorting 53)	SID104180387	inactive
Zip88E (Zinc/iron regulated transporter-related protein 88E)	SID104195354	inactive
CG7362	SID104196028	inactive
CG33125	SID104179937	inactive
pps (protein partner of snf)	SID104195849	inactive
Ilp3 (Insulin-like peptide 3)	SID104189960	inactive
tay (tay bridge)	SID104199934	inactive
FoxL1 (Forkhead box L1)	SID104188509	inactive
CG10467	SID104189520	inactive
Bbd (Bombardier)	SID104186501	inactive
CR33328 (retired record)	SID104202311	inactive
CG13760	SID104198409	inactive
Cyp6a8 (Cytochrome P450 6a8)	SID104187176	inactive
Cog8 (Component of oligomeric golgi complex 8)	SID104182753	inactive
Bacc (Bacchus)	SID104180527	inactive
pita	SID104183798	inactive
pita	SID104184227	inactive
Non2 (Novel nucleolar protein 2)	SID104188064	inactive
Clk (Clock)	SID104190909	inactive
CG2124	SID104198000	inactive
Cpr66D (Cuticular protein 66D)	SID104190432	inactive
Cpr66D (Cuticular protein 66D)	SID104190438	inactive
SCaMC	SID104190085	inactive
SCaMC	SID104190207	inactive
CG4945	SID104186696	inactive
Hyccin	SID104186775	inactive
Spps (Sp1-like factor for pairing sensitive-silencing)	SID104195648	inactive
CG8060	SID104186856	inactive
CG11670	SID104194134	inactive
sv (shaven)	SID104197013	inactive

In a second layout: entries from further up
CG17896 [SID104198294]
- outcome: inactive

fliI (flightless I) [SID104200370]
- outcome: active

CG5065 [SID104186704]
- outcome: inactive

jing [SID104184715]
- outcome: inactive

jing [SID104184719]
- outcome: inactive

jing [SID104184792]
- outcome: inactive

Vps53 (Vacuolar protein sorting 53) [SID104180387]
- outcome: inactive

Zip88E (Zinc/iron regulated transporter-related protein 88E) [SID104195354]
- outcome: inactive

CG7362 [SID104196028]
- outcome: inactive

Next reagents follow.
target gene	PubChem SID	outcome
CG4610	SID104184269	inactive
CG4610	SID104201875	inactive
Ccs (Copper chaperone for superoxide dismutase)	SID104186484	inactive
ball (ballchen)	SID104193937	inactive
CG18641	SID104180319	inactive
hgo (homogentisate 1,2-dioxygenase)	SID104183336	inactive
Rnf11 (Ring finger protein 11)	SID104201284	inactive
cold (coiled)	SID104180330	inactive
if (inflated)	SID104200133	inactive
CG15597	SID104192075	inactive
CG31960	SID104180073	inactive
CG15022	SID104188268	inactive
CG18420	SID104181746	inactive
kz (kurz)	SID104198578	inactive
spn-A (spindle A)	SID104196604	inactive
to (takeout)	SID104196878	inactive
CG4820	SID104195446	inactive
CG33251 (retired record) + CG9915	SID104200009	inactive
CG17593	SID104180296	inactive
Cog7 (Component of oligomeric golgi complex 7)	SID104196123	inactive
CHOp24	SID104198102	inactive
smp-30 (Senescence marker protein-30)	SID104196851	inactive
kappaTry	SID104185938	inactive
CCT2 (Chaperonin containing TCP1 subunit 2)	SID104198207	inactive
CG33230	SID104188394	inactive
CG8152	SID104186875	inactive
Tom7 (Translocase of outer membrane 7)	SID104184927	inactive
Tom7 (Translocase of outer membrane 7)	SID104186905	inactive
